Assay results from PMC12314576, “The Actin‐Binding Prolyl‐Isomerase Par17 Sustains Its Substrate Selectivity by Interdomain Allostery” (Proteins, 2025).
Results are given in words; binding and its absence hold for the method and conditions named. Some binding calls cover weakened binding; strength is not graded here.

Assays:
Experiment in all cases: peptide or protein array; 12-mers of β-actin (2 amino acids per step) SPOT-synthesised on cellulose membranes, blocked with 5% BSA in PBS, incubated overnight with Atto594-labeled Par14 or Par17, washed with PBS, fluorescence imaged; runs of three or more spots classified as possible binding sites; both purified
[1] = target: T1, β-actin 12-mer, spot N5
T1 sequence (peptide): DYLMKILTERGY

[2] = target: T2, β-actin 12-mer, spot I9
T2 sequence (peptide): YSVWIGGSILAS

[3] = target: T3, β-actin 12-mer, spot P1
T3 sequence (peptide): FPSIVGRPRHQG

[4] = target: T4, β-actin 12-mer, spot L4
T4 sequence (peptide): YASGRTTGIVMD

[5] = target: T5, β-actin 12-mer, spot O5
T5 sequence (peptide): LMKILTERGYSF

[6] = target: T6, β-actin 12-mer, spot D7
T6 sequence (peptide): VITIGNERFRCP

[7] = target: T7, β-actin 12-mer, spot E9
T7 sequence (peptide): IIAPPERKYSVW

[8] = target: T8, β-actin 12-mer, spot K4
T8 sequence (peptide): SLYASGRTTGIV

[9] = target: T9, β-actin 12-mer, spot M9
T9 sequence (peptide): ILASLSTFQQMW

[10] = target: T10, β-actin 12-mer, spot I4
T10 sequence (peptide): QAVLSLYASGRT

[11] = target: T11, β-actin 12-mer, spot N9
T11 sequence (peptide): ASLSTFQQMWIS

[12] = target: T12, β-actin 12-mer, spot J2
T12 sequence (peptide): QSKRGILTLKYP

[13] = target: T13, β-actin 12-mer, spot G9
T13 sequence (peptide): PERKYSVWIGGS

[14] = target: T14, β-actin 12-mer, spot N1
T14 sequence (peptide): PRAVFPSIVGRP

[15] = target: T15, β-actin 12-mer, spot Q1
T15 sequence (peptide): SIVGRPRHQGVM

[16] = target: T16, β-actin 12-mer, spot T1
T16 sequence (peptide): RHQGVMVGMGQK

[17] = target: T17, β-actin 12-mer, spot D3
T17 sequence (peptide): HHTFYNELRVAP

[18] = target: T18, β-actin 12-mer, spot O1
T18 sequence (peptide): AVFPSIVGRPRH

Measured: binding

Atto594-labeled Par17 (from UniProt Q9Y237-2 3-156) (enzyme)
binds: [1] | [2] | [3] | [4] | [5] | [6] | [7] | [8] | [9] | [10] | [11] | [12] | [13] | [14] | [15] | [16] | [17] | [18]
